{
  "source": "patent US20050215548A1",
  "about": "(Cyclacel Limited, priority 2002, published 2005)",
  "format_in_all_cases": "cell-based",
  "key": {"AGS": {"tested_on": "AGS", "assay": "72-h MTT cytotoxicity assay, AGS", "details": "Homo sapiens, Gastric adenocarcinoma, Table 2, read-out: Anti-proliferative activity, 72-h MTT IC50", "description": "(§1) The fluorescence polarisation competitive HDM2 binding assay described in Example 3 was used. Furthermore, the anti-proliferative potency of the compounds against three human tumour cell lines with different genetic make-up was also determined. […] The cell lines used were as follows: AGS, gastric adenocarcinoma, wild-type p53; H1299, large cell lung carcinoma, p53 null, low HDM2; SJSA-1, primitive multipotential bone sarcoma, wild-type p53, overexpressed HDM2.\n(§2) Representative bisarylsulfonamide compounds were tested on a panel of transformed and non-transformed human cell lines, using a standard 72-h MTT cytotoxicity assay [Haselsberger K et al, ibid]."}, "H1299": {"tested_on": "H1299", "assay": "72-h MTT cytotoxicity assay, H1299", "details": "Homo sapiens, NCI-H1299, 72 h; H1299, Large cell lung carcinoma; Table 2; read-out: Anti-proliferative activity, 72-h MTT IC50", "description": "as §1, §2"}, "DU145": {"tested_on": "DU145", "assay": "72-h MTT cytotoxicity assay, DU145", "details": "Homo sapiens, DU-145, 72 h; DU145, Prostate carcinoma; read-out: Anti-proliferative activity, 72-h MTT IC50", "description": "as §2"}, "HT29": {"tested_on": "HT29", "assay": "72-h MTT cytotoxicity assay, HT29", "details": "Homo sapiens, HT-29, 72 h; HT29, Colon adenocarcinoma; read-out: Anti-proliferative activity, 72-h MTT IC50", "description": "as §2"}, "Lovo": {"tested_on": "Lovo", "assay": "72-h MTT cytotoxicity assay, Lovo", "details": "Homo sapiens, Colon adenocarcinoma, read-out: Anti-proliferative activity, 72-h MTT IC50", "description": "as §2"}, "Nci-H460": {"tested_on": "Nci-H460", "assay": "72-h MTT cytotoxicity assay, Nci-H460", "details": "Homo sapiens, Nci-H460, Large cell lung carcinoma, read-out: Anti-proliferative activity, 72-h MTT IC50", "description": "as §2"}, "SK-N-MC": {"tested_on": "SK-N-MC", "assay": "72-h MTT cytotoxicity assay, SK-N-MC", "details": "Homo sapiens, Neuriepithelioma, read-out: Anti-proliferative activity, 72-h MTT IC50", "description": "as §2"}, "A549": {"tested_on": "A549", "assay": "72-h MTT cytotoxicity assay, A549", "details": "Homo sapiens, A549, Lung carcinoma, read-out: Anti-proliferative activity, 72-h MTT IC50", "description": "as §2"}, "HCT116": {"tested_on": "HCT116", "assay": "72-h MTT cytotoxicity assay, HCT116", "details": "Homo sapiens, HCT-116, 72 h; HCT116, Colon carcinoma; read-out: Anti-proliferative activity, 72-h MTT IC50", "description": "as §2"}, "HeLa": {"tested_on": "HeLa", "assay": "72-h MTT cytotoxicity assay, HeLa", "details": "Homo sapiens, Cervical carcinoma, read-out: Anti-proliferative activity, 72-h MTT IC50", "description": "as §2"}, "MCF7": {"tested_on": "MCF7", "assay": "72-h MTT cytotoxicity assay, MCF7", "details": "Homo sapiens, MCF7, Breast adenocarcinoma, read-out: Anti-proliferative activity, 72-h MTT IC50", "description": "as §2"}, "Messa": {"tested_on": "Messa", "assay": "72-h MTT cytotoxicity assay, Messa", "details": "Homo sapiens, MES-SA, Uterus sarcoma, read-out: Anti-proliferative activity, 72-h MTT IC50", "description": "as §2"}, "Messa-Dx5": {"tested_on": "Messa-Dx5", "assay": "72-h MTT cytotoxicity assay, Messa-Dx5", "details": "Homo sapiens, MES-SA/Dx5, 72 h; Messa-Dx5, Uterus sarcoma; read-out: Anti-proliferative activity, 72-h MTT IC50", "description": "as §2"}, "Saos-2": {"tested_on": "Saos-2", "assay": "72-h MTT cytotoxicity assay, Saos-2", "details": "Homo sapiens, Saos-2, Osteosracoma, read-out: Anti-proliferative activity, 72-h MTT IC50", "description": "as §2"}, "NaCat": {"tested_on": "NaCat", "assay": "72-h MTT cytotoxicity assay, NaCat", "details": "Keratinocyte, Human keratinocytes, read-out: Anti-proliferative activity, 72-h MTT IC50", "description": "as §2"}, "U2OS": {"tested_on": "U2OS", "assay": "72-h MTT cytotoxicity assay, U2OS", "details": "Homo sapiens, Osteosracoma, read-out: Anti-proliferative activity, 72-h MTT IC50", "description": "as §2"}, "SKUT-1": {"tested_on": "SKUT-1", "assay": "72-h MTT cytotoxicity assay, SKUT-1", "details": "Homo sapiens, SK-UT-1, 72 h; SKUT-1, Uterus leiomyosarcoma; read-out: Anti-proliferative activity, 72-h MTT IC50", "description": "as §2"}, "HS27": {"tested_on": "HS27", "assay": "72-h MTT cytotoxicity assay, HS27", "details": "Homo sapiens, HS27, Foreskin fibroblasts, read-out: Anti-proliferative activity, 72-h MTT IC50", "description": "as §2"}, "IMR90": {"tested_on": "IMR90", "assay": "72-h MTT cytotoxicity assay, IMR90", "details": "Homo sapiens, IMR-90, 72 h; IMR90, Lung fibroblasts; read-out: Anti-proliferative activity, 72-h MTT IC50", "description": "as §2"}, "WI38": {"tested_on": "WI38", "assay": "72-h MTT cytotoxicity assay, WI38", "details": "Homo sapiens, WI-38, 72 h; WI38, Lung fibroblasts; read-out: Anti-proliferative activity, 72-h MTT IC50", "description": "as §2"}, "[1]": {"tested_on": "transformed human cell lines", "assay": "72-h MTT panel, average transformed", "details": "read-out: Anti-proliferative activity, 72-h MTT IC50, Average transformed", "description": "as §2\n(§3) This differential selectivity further supports the notion that the bisarylsulfonamides modulate cellular HDM2 function. It is known that HDM2 amplification is particularly common in soft tissue sarcomas and osteosarcomas [Momand J et al, ibid; Bartel F, Meye A, Wurl P, Kappler M, Bache M, Lautenschlager C, Grunbaum U, Schmidt H, Taubert H; Int. J. Cancer 2001; 95: 168-175]."}, "sarcoma cell lines": {"tested_on": "sarcoma cell lines", "assay": "72-h MTT panel, average sarcomas", "details": "Homo sapiens, read-out: Anti-proliferative activity, 72-h MTT IC50, Average sarcomas", "description": "as §2, §3"}, "[2]": {"tested_on": "non-transformed human cell lines", "assay": "72-h MTT panel, average non-transformed", "details": "read-out: Anti-proliferative activity, 72-h MTT IC50, Average non-transformed", "description": "as §2, §3"}},
  "data": [
    {"smiles": "CC[C@H](CO)Nc1nc(NCc2ccccc2)c2ncn(C(C)C)c2n1", "note": "[Roscovitine, reference compound]", "values": [
      {"measurement": "IC50", "setting": "AGS", "value": 10.7, "unit": "µM"},
      {"measurement": "IC50", "setting": "H1299", "value": 11.9, "unit": "µM"},
      {"measurement": "IC50", "setting": "DU145", "value": 8.5, "unit": "µM"},
      {"measurement": "IC50", "setting": "HT29", "value": 15.6, "unit": "µM"},
      {"measurement": "IC50", "setting": "Lovo", "value": 13.8, "unit": "µM"},
      {"measurement": "IC50", "setting": "Nci-H460", "value": 12.8, "unit": "µM"},
      {"measurement": "IC50", "setting": "SK-N-MC", "value": 7.1, "unit": "µM"},
      {"measurement": "IC50", "setting": "A549", "value": 9.2, "unit": "µM"},
      {"measurement": "IC50", "setting": "HCT116", "value": 9.7, "unit": "µM"},
      {"measurement": "IC50", "setting": "HeLa", "value": 16.1, "unit": "µM"},
      {"measurement": "IC50", "setting": "MCF7", "value": 12.1, "unit": "µM"},
      {"measurement": "IC50", "setting": "Messa", "value": 9.9, "unit": "µM"},
      {"measurement": "IC50", "setting": "Messa-Dx5", "value": 5.3, "unit": "µM"},
      {"measurement": "IC50", "setting": "Saos-2", "value": 17.4, "unit": "µM"},
      {"measurement": "IC50", "setting": "NaCat", "value": 16.3, "unit": "µM"},
      {"measurement": "IC50", "setting": "U2OS", "value": 16.4, "unit": "µM"},
      {"measurement": "IC50", "setting": "SKUT-1", "value": 10.5, "unit": "µM"},
      {"measurement": "IC50", "setting": "HS27", "value": 43.1, "unit": "µM"},
      {"measurement": "IC50", "setting": "IMR90", "value": 44.2, "unit": "µM"},
      {"measurement": "IC50", "setting": "WI38", "value": 34.5, "unit": "µM"},
      {"measurement": "IC50", "setting": "[1]", "value": "12.3 ± 3.7", "unit": "µM"},
      {"measurement": "IC50", "setting": "sarcoma cell lines", "value": "13.8 ± 5.1", "unit": "µM"},
      {"measurement": "IC50", "setting": "[2]", "value": "40.6 ± 5.3", "unit": "µM"}
    ]}
  ]
}
